# Experimental data: PubChem BioAssay
# The shares of active, inactive and inconclusive entries below differ from those in the screen. For some assays here: Potencies of inconclusive entries are doubtful fits and often do not repeat. Calls of active or inactive are those of the source. Unless noted, no cut-off is given here; in the data, nearly all actives have AC50 up to about 26 µM.
# How the values were obtained:
# [1] = growth inhibition of DIPG glioma cells, dose response, cell-based, SU-DIPG-XVII, MIPE5.0, CellTiter-Glo, qHTS (AID 1347060); details: SU-DIPG-XVII viability, CellTiter-Glo ATP luminescence;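 for AC50: cells exposed to compound for 48 hours before viability readout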
# [2] = growth inhibition of DIPG glioma cells, dose response, cell-based, SU-DIPG-XIII, MIPE5.0, CellTiter-Glo, qHTS (AID 1347064; cut-off not given, nearly all actives have AC50 up to about 23 µM;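 for AC50: cells exposed to compound for 48 hours before the viability read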); details: SU-DIPG-XIII viability, CellTiter-Glo ATP luminescence
# [3] = viability loss in pontine glioma line – cell-based, SU-DIPG-XXV, MIPE5.0, CellTiter-Glo, qHTS, dose response (AID 1347065); details: CellTiter-Glo ATP luminescence;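 note: cells exposed to compound for 48 hours before ATP readout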
# [4] = JHH-DIPG-1 glioma cell viability, MIPE5.0 library, CellTiter-Glo luminescence, qHTS (AID 1347067); details: JHH-DIPG-1 glioma viability, CellTiter-Glo ATP luminescence;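 note: cells exposed to compound for 48 hours before readout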
# [5] = SU-DIPG-VI glioma cell viability, MIPE4.0 library, CellTiter-Glo luminescence, qHTS (AID 1347066; cut-off not given, nearly all actives have AC50 up to about 30 µM;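 note: cells exposed to compound for 48 hours before readout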); details: CellTiter-Glo ATP luminescence
smiles,measurement,setting,value
CCNCc1nc2c(N)nc3ccccc3c2n1CC(C)(C)O,AC50,[1],inconclusive: 37.2 µM [cytotoxic]
same,AC50,[2],inconclusive: 0.0295 µM [cytotoxic]
same,outcome,[3],inactive
Cn1c(NC[C@@H](N)Cc2ccccc2)nc(-c2ccncc2)c(-c2ccc3ccccc3c2)c1=O,AC50,[1],inconclusive: 37.2 µM [cytotoxic]
same,AC50,[2],inconclusive: 37.2 µM [cytotoxic]
same,AC50,[3],inconclusive: 37.2 µM [cytotoxic]
same,AC50,[4],inconclusive: 37.2 µM [cytotoxic]
CC(C)OC(=O)[C@H](C)N[P@](=O)(OC[C@H]1O[C@@H](n2ccc(=O)[nH]c2=O)[C@](C)(F)[C@@H]1O)Oc1ccccc1,AC50,[1],inconclusive: 11.8 µM [cytotoxic]
same,AC50,[2],inconclusive: 8.33 µM [cytotoxic]
same,AC50,[3],inconclusive: 11.8 µM [cytotoxic]
same,outcome,[5],inactive
OCCOc1ccc(/C(=C(/CCCl)c2ccccc2)c2ccccc2)cc1,AC50,[1],inconclusive: 29.5 µM [cytotoxic]
same,outcome,[2],inactive
same,outcome,[3],inconclusive
same,AC50,[4],inconclusive: 29.5 µM [cytotoxic]
CC#C[C@@H](CC(=O)O)c1ccc(OCc2cccc(-c3ccc(C(F)(F)F)cc3)c2)cc1,outcome,[1],inactive
same,AC50,[2],inconclusive: 20.9 µM [cytotoxic]
same,AC50,[3],inconclusive: 0.00105 µM [cytotoxic]
COC1CC(C(=O)c2ccc3c(N)ncc(-c4ccc(-c5cnn(C)c5)cc4)c3n2)C1 (stereo not given),AC50,[1],inconclusive: 1.05 µM [cytotoxic]
same,AC50,[2],inconclusive: 2.95 µM [cytotoxic]
same,AC50,[3],inconclusive: 16.6 µM [cytotoxic]
COc1ccc(-c2cnc3c(-c4cccc5ncccc45)cnn3c2)cc1,AC50,[1],inconclusive: 14.8 µM [cytotoxic]
same,AC50,[2],inconclusive: 33.2 µM [cytotoxic]
same,AC50,[3],inconclusive: 33.2 µM [cytotoxic]
same,AC50,[4],inconclusive: 18.6 µM [cytotoxic]
NCCS(=O)(=O)O,outcome,[1],inactive
same,AC50,[2],inconclusive: 0.118 µM
same,outcome,[3],inactive
same,outcome,[4],inactive
O=C1S/C(=C\c2ccc(OCc3cccc(B(O)O)c3)cc2)C(=O)N1Cc1ccc(F)cc1,AC50,[1],inconclusive: 16.6 µM [cytotoxic]
same,AC50,[2],inconclusive: 0.118 µM [cytotoxic]
same,AC50,[3],inconclusive: 23.5 µM [cytotoxic]
same,AC50,[4],inconclusive: 10.5 µM [cytotoxic]
O=C(/C=C/c1ccc(Cl)cc1)N1CCC2(CC1)CN(Cc1ccc(Cl)c(Cl)c1)C(=O)O2,AC50,[1],active: 18.6 µM
same,AC50,[2],inconclusive: 10.5 µM [cytotoxic]
same,AC50,[3],inconclusive: 11.8 µM [cytotoxic]
same,AC50,[4],inconclusive: 33.2 µM [cytotoxic]
CCOCOC[C@H](C[C@H](C)C(=O)NO)NC(=O)c1ccc(Oc2ccccc2)cc1,AC50,[1],inconclusive: 16.6 µM [cytotoxic]
same,AC50,[2],inconclusive: 0.00118 µM
same,outcome,[3],inactive
same,outcome,[4],inactive
COc1ccc(Cl)c(Nc2ncnc3cc(OCC4CCN(C)CC4)c(OC)cc23)c1,AC50,[1],active: 3.72 µM
same,AC50,[2],inconclusive: 4.68 µM [cytotoxic]
same,AC50,[3],inconclusive: 18.6 µM [cytotoxic]
same,AC50,[4],active: 20.9 µM
COc1cc(-c2cc(-c3ccc(N4CCNCC4)cc3)cnc2C)cc(OC)c1OC,outcome,[1],inactive
same,outcome,[2],inactive
same,AC50,[3],inconclusive: 0.00186 µM [cytotoxic]
same,AC50,[4],inconclusive: 11.8 µM
Cc1noc2c1-c1ccccc1C(c1ccc(Cl)cc1)=N[C@H]2CC(N)=O,outcome,[1],inactive
same,AC50,[2],inconclusive: 14.8 µM [cytotoxic]
same,AC50,[3],inconclusive: 1.48 µM [cytotoxic]
same,AC50,[4],inconclusive: 0.0148 µM [cytotoxic]
COc1ccc2[nH]c(S(=O)Cc3ncc(C)c(OC)c3C)nc2n1 (stereo not given),outcome,[1],inactive
same,AC50,[2],inconclusive: 0.0525 µM [cytotoxic]
same,outcome,[3],inconclusive
same,AC50,[4],inconclusive: 33.2 µM [cytotoxic]
C[C@H](NC(=O)[C@H]1NCC[C@@H]1O)c1ccc(-c2noc(CCC3CCCC3)n2)cc1,AC50,[1],inconclusive: 10.5 µM [cytotoxic]
same,AC50,[2],inconclusive: 11.8 µM [cytotoxic]
same,AC50,[3],inconclusive: 11.8 µM [cytotoxic]
same,AC50,[4],inconclusive: 0.00296 µM
CN1C(=O)N(c2cc(Cl)cc(Cl)c2)C(=O)[C@]12CN(Cc1cc(C(=O)O)cs1)C[C@H]2c1ccc(C#N)cc1,outcome,[1],inactive
same,AC50,[2],inconclusive: 0.0934 µM [cytotoxic]
same,AC50,[3],inconclusive: 16.6 µM [cytotoxic]
same,AC50,[4],inconclusive: 33.2 µM [cytotoxic]

# Exported tab-delimited: entries from further up
smiles	measurement	setting	value
NCCS(=O)(=O)O	outcome	[1]	inactive
same	AC50	[2]	inconclusive: 0.118 µM
same	outcome	[3]	inactive
same	outcome	[4]	inactive
O=C1S/C(=C\c2ccc(OCc3cccc(B(O)O)c3)cc2)C(=O)N1Cc1ccc(F)cc1	AC50	[1]	inconclusive: 16.6 µM [cytotoxic]
